Laboratory results taken from PubChem BioAssay (EPA / NIEHS).
“And” between values parts separate entries of the source, which are not always exact repeats. Equal values may be shown once. Inconclusive results, whose numbers are uncertain, are shown with a selection of clear calls. A potency beside an inconclusive call is a rough fit, not a confirmed value. The source made the active and inactive calls. How the source made its calls: active means hit-call score of the fitted dose curve at least 0.9, where 1 is the maximum; inconclusive means response in the unintended direction; inactive means score below 0.9.

Chains of the proteins cited; added tags and fusions are not shown.
UniProt P04637, whole entry, looked up: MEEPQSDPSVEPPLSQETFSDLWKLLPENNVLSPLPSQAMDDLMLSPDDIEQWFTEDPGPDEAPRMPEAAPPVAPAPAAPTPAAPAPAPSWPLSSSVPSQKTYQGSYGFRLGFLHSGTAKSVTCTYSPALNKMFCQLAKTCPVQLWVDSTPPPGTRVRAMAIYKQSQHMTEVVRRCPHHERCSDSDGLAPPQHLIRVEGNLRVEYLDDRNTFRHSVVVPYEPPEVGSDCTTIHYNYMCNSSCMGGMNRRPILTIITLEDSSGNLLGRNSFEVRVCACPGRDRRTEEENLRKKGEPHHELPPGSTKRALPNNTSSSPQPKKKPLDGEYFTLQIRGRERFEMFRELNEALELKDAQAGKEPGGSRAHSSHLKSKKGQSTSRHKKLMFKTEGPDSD

Test system: not listed separately
Test: TOX21_p53_BLA_p4_viability: Viability Assessment in the Tox21 HCT-116 p53 Agonism Beta-lactamase Assay, Phase 4 (AID 2283597);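 further: hits lower the luminescence signal meaning cytotoxicity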
In short: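 Cytotoxicity was inferred from loss of CellTiter-Glo luminescence. HCT116 cells had been dosed with compounds after 5 h plating, incubated 16 h at 37C and 5% CO2, and exposed to the CCF4-AM substrate for 2 h.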

| SMILES | outcome | AC50 |
| --- | --- | --- |
| CC(CN1CC(=O)NC(=O)C1)N1CC(=O)NC(=O)C1 (stereo not drawn) | inactive | – |
| CC[N+](CC)(CCNC(=O)C(=O)NCC[N+](CC)(CC)Cc1ccccc1Cl)Cc1ccccc1Cl | inactive | – |
| CCCCC(CC)COC(=O)C=Cc1ccc(OC)cc1 (stereo not drawn) | inactive | inconclusive: 4.41 µM |
| Cc1ccc(N(CCO)CCO)cc1 | – | inconclusive: 76.4 µM |
| O=C(O)c1cccc(/C=C2/C[C@@H]3[C@@H](/C=C/[C@@H](O)C4CCCCC4)[C@H](O)C[C@@H]3O2)c1 | – | inconclusive: 23 µM |
| Cl[Si](Cl)(c1ccccc1)c1ccccc1 | – | inconclusive: 0.00985 µM |
| CNC(=O)c1ccccc1Sc1ccc2c(/C=C/c3ccccn3)n[nH]c2c1 | inactive | – |
| CCCCCN=C(N)N/N=C/c1c[nH]c2ccc(OC)cc12 | inactive | – |
| COC(=O)[C@H]1[C@H]2C[C@@H]3c4[nH]c5cc(OC)ccc5c4CCN3C[C@H]2C[C@H](OC)[C@@H]1OC | inactive | – |
| O=C(O)CN(CC(=O)O)CC1=CC2C(=CC1=O)Oc1cc(O)c(CN(CC(=O)O)CC(=O)O)cc1C21OC(=O)c2ccccc21 (stereo not drawn) | – | inconclusive: 0.344 µM |
| O=c1[nH]c2ccccc2n1CCCN1CCN(C(c2ccccc2)c2ccccc2)CC1 | – | active: 31.3 µM |
| COc1ccccc1OCC(O)CN1CCN(CC(=O)Nc2c(C)cccc2C)CC1 (stereo not drawn) | inactive | – |
| CNCCS(=O)(=O)O | – | inconclusive: 9.2 µM |
| Nc1nc2ccc(OC(F)(F)F)cc2s1 | – | inconclusive: 0.000202 µM |
| O=c1n(CCCN2CCN(c3cccc(Cl)c3)CC2)nc2ccccn12 | inactive | inconclusive: 46.1 µM |
| CCCCCCCCCCCCCCCCCCCCCC(=O)Nc1ccn([C@@H]2O[C@H](CO)[C@@H](O)[C@@H]2O)c(=O)n1 | inactive | – |
| CC(=O)Nc1ccn(C2COC(COC(=O)c3ccccc3)O2)c(=O)n1 (stereo not drawn) | – | inconclusive: 16.4 µM |
| CCC(=O)O[C@]1(C(=O)CCl)[C@@H](C)C[C@H]2[C@@H]3CCC4=CC(=O)C=C[C@]4(C)[C@@]3(F)[C@@H](O)C[C@@]21C | – | inconclusive: 0.000566 µM |
| CN(C)c1cc(NC(=O)CNC(C)(C)C)c(O)c2c1C[C@H]1C[C@H]3[C@H](N(C)C)C(=O)C(C(N)=O)=C(O)[C@@]3(O)C(=O)C1=C2O | inactive | – |
| CC(=O)Oc1ccc([N+](=O)[O-])cc1CCl | – | inconclusive: 46.1 µM |
| CCCCCCCCCCCC(=O)N(CC)CC | – | inconclusive: 0.00121 µM |
| CCOCCOCCOC(C)=O | – | inconclusive: 0.00915 µM |
| CC(C)[C@@H](N)C(=O)O | – | inconclusive: 23 µM |
| CC1(C)[C@H]2CC[C@](C)(C2)[C@H]1O | inactive | – |

Molecular target: Cellular tumor antigen p53 (Homo sapiens) (UniProt P04637)
Test: TOX21_p53_BLA_p5_ratio: Tox21 HCT-116 p53 Agonism Beta-lactamase Assay, Ratio, Phase 5 (AID 2283599)
In short: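 HCT-116 p53-bla cells (4000/well) plated 5 h, dosed with compound (217-fold DMSO dilution) for 16 h at 37 C; CCF4-AM substrate 2 h at room temperature. Activity is the 460/530 nm emission ratio (405 nm excitation), fitted in gain-of-signal direction versus DMSO.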

| SMILES | AC50 | outcome |
| --- | --- | --- |
| CC(CN1CC(=O)NC(=O)C1)N1CC(=O)NC(=O)C1 (stereo not drawn) | active: 8.51 µM | – |
| CC[N+](CC)(CCNC(=O)C(=O)NCC[N+](CC)(CC)Cc1ccccc1Cl)Cc1ccccc1Cl | inconclusive: 39.3 µM | – |
| CCCCC(CC)COC(=O)C=Cc1ccc(OC)cc1 (stereo not drawn) | inconclusive: 45.9 µM | – |
| Cc1ccc(N(CCO)CCO)cc1 | – | inactive |
| Cl[Si](Cl)(c1ccccc1)c1ccccc1 | inconclusive: 47 µM | – |
| CNC(=O)c1ccccc1Sc1ccc2c(/C=C/c3ccccn3)n[nH]c2c1 | active: 0.894 µM | – |
| CCCCCN=C(N)N/N=C/c1c[nH]c2ccc(OC)cc12 | inconclusive: 23 µM | – |
| COC(=O)[C@H]1[C@H]2C[C@@H]3c4[nH]c5cc(OC)ccc5c4CCN3C[C@H]2C[C@H](OC)[C@@H]1OC | – | inactive |
| O=C(O)CN(CC(=O)O)CC1=CC2C(=CC1=O)Oc1cc(O)c(CN(CC(=O)O)CC(=O)O)cc1C21OC(=O)c2ccccc21 (stereo not drawn) | inconclusive: 23 µM | – |
| O=c1[nH]c2ccccc2n1CCCN1CCN(C(c2ccccc2)c2ccccc2)CC1 | inconclusive: 23 µM | – |
| COc1ccccc1OCC(O)CN1CCN(CC(=O)Nc2c(C)cccc2C)CC1 (stereo not drawn) | inconclusive: 23 µM | – |
| Nc1nc2ccc(OC(F)(F)F)cc2s1 | active: 23.9 µM | – |
| O=c1n(CCCN2CCN(c3cccc(Cl)c3)CC2)nc2ccccn12 | inconclusive: 46.1 µM and inconclusive: 10.3 µM | – |
| CCC(=O)OCC(=O)[C@@]1(OC(=O)CC)[C@H](C)C[C@H]2[C@@H]3CCC4=CC(=O)C=C[C@]4(C)[C@@]3(F)[C@@H](O)C[C@@]21C | inconclusive: 41.9 µM | – |
| CN1CCCN=C1/C=C/c1cccs1 | inconclusive: 23 µM | – |
| CCCCCCCCCCCCCCCCCCCCCC(=O)Nc1ccn([C@@H]2O[C@H](CO)[C@@H](O)[C@@H]2O)c(=O)n1 | – | inactive |
| CC(=O)Nc1ccn(C2COC(COC(=O)c3ccccc3)O2)c(=O)n1 (stereo not drawn) | – | inactive |
| CCC(=O)O[C@]1(C(=O)CCl)[C@@H](C)C[C@H]2[C@@H]3CCC4=CC(=O)C=C[C@]4(C)[C@@]3(F)[C@@H](O)C[C@@]21C | inconclusive: 23 µM | – |
| CN(C)c1cc(NC(=O)CNC(C)(C)C)c(O)c2c1C[C@H]1C[C@H]3[C@H](N(C)C)C(=O)C(C(N)=O)=C(O)[C@@]3(O)C(=O)C1=C2O | inconclusive: 23 µM | – |
| CC(C)[C@@H](N)C(=O)O | – | inactive |
| CCN(CC)CCOC(=O)C(Cc1cccc2ccccc12)CC1CCCO1 (stereo not drawn) | inconclusive: 10.3 µM | – |
| CC1(C)[C@H]2CC[C@](C)(C2)[C@H]1O | inconclusive: 81.3 µM | – |

2 entries picked at random from those above, as already listed:

| SMILES | AC50 | outcome |
| --- | --- | --- |
| Cl[Si](Cl)(c1ccccc1)c1ccccc1 | inconclusive: 47 µM | – |
| O=c1[nH]c2ccccc2n1CCCN1CCN(C(c2ccccc2)c2ccccc2)CC1 | inconclusive: 23 µM | – |
